The list shows only some results of the screen, not a fair sample: it is rich in T/C values a quarter to a half above the control, in often repeated tests (any T/C) and in doses without a T/C. Further doses and runs are listed elsewhere. T/C gives the treated animals as a percentage of the vehicle group. Schedules are NCI's codes, taken here to give the interval after Q, in days (D) or hours (H), and the number of doses after X. Some T/C values carry the count of animals alive at the toxicity check (mostly the fifth day); where none is given, no animal had died by that day. Some entries were tested several times; the values are given in rising order. Some entries give survivors of the animals treated and no T/C: the source holds a T/C of zero for them, seemingly a mark for toxic or unscored doses. Counts of survivors are from the toxicity check (mostly the fifth day) where no day follows; animals may have died later.
System: BDF1 mice, Adenocarcinoma 755 s.c., tumor weight T/C
Experiment: NCI In Vivo Anticancer Drug Screen. Data for tumor model Adenocarcinoma 755 (subcutaneous) in B6D2F1 (BDF1) mice
Conditions: T/C endpoint: mean tumor weight, higher T/C = larger tumour; for T/C: evaluated on day 12
Summary of the method: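 Compound activity was tested in mice carrying transplanted tumors. Survival or tumor size was measured, and each value is the treated-group measurement divided by that of the vehicle-treated control group (T/C).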

[1] = dose: 400.0 mg/kg/injection, schedule: Q01DX011 (ip), vehicle: carboxymethylcellulose (CMC)
[2] = dose: 125.0 mg/kg/injection, schedule: Q01DX011 (ip), vehicle: methylcellulose (MC)
[3] = dose: 200.0 mg/kg/injection, schedule: Q01DX011 (ip), vehicle: carboxymethylcellulose (CMC)
[4] = dose: 2.0 mg/kg/injection, schedule: Q01DX011 (ip), vehicle: saline
[5] = dose: 4.0 mg/kg/injection, schedule: Q01DX011 (ip), vehicle: saline

Structure (SMILES): CC(=O)[C@@]1(O)CC[C@H]2[C@@H]3C[C@H](C)C4=CC(=O)CC[C@]4(C)[C@H]3[C@@H](O)C[C@@]21C
- T/C (dose: 112.0 mg/kg/injection, schedule: Q01DX011 (sc), vehicle: steroid suspending solution): 19 [11 of 12 alive], 34, 47, 48 % of control [9 of 10 alive]
- T/C (dose: 225.0 mg/kg/injection, schedule: Q01DX011 (sc), vehicle: steroid suspending solution): 9, 13 [9 of 10 alive], 29, 84 % of control
- survivor count (dose: 450.0 mg/kg/injection, schedule: Q01DX011 (sc), vehicle: steroid suspending solution): 5 of 10 and 7 of 12
- survivor count (dose: 900.0 mg/kg/injection, schedule: Q01DX011 (sc), vehicle: steroid suspending solution): 5 of 12

Structure (SMILES): CSc1nc(N)c(NC=O)c(=O)n1C
- survivor count (dose: 225.0 mg/kg/injection, schedule: Q01DX011 (ip), vehicle: saline): 6 of 10

Structure (SMILES): O=[N+]([O-])c1cc([N+](=O)[O-])c(NN(c2ccccc2)c2ccccc2)c([N+](=O)[O-])c1
- T/C (dose: 12.5 mg/kg/injection, schedule: Q01DX011 (ip), vehicle: other): 136 % of control
- survivor count (dose: 50.0 mg/kg/injection, schedule: Q01DX011 (ip), vehicle: other): 6 of 10

Structure (SMILES): CCCCn1cnc2c(SCCc3ccccc3)nc(N)nc21
- survivor count (dose: 400.0 mg/kg/injection, schedule: Q01DX011 (ip), vehicle: methylcellulose (MC)): 6 of 10

Structure (SMILES): C[C@]12CC[C@H](O)C[C@H]1CC[C@@H]1[C@@H]2CC[C@]2(C)[C@@H](C3=CC(=O)OC3)CC[C@]12O
- survivor count (dose: 50.0 mg/kg/injection, schedule: Q01DX011 (ip), vehicle: carboxymethylcellulose (CMC)): 1 of 10

Structure (SMILES): O=[N+]([O-])c1ccc(Oc2cc(Cl)c(Cl)cc2Cl)c([N+](=O)[O-])c1
- survivor count [1]: 3 of 10
- survivor count (dose: 800.0 mg/kg/injection, schedule: Q01DX011 (ip), vehicle: carboxymethylcellulose (CMC)): 6 of 10

Structure (SMILES): CSc1ncc(Br)c(SCc2ccc(Cl)cc2Cl)n1
- survivor count (dose: 62.0 mg/kg/injection, schedule: Q01DX011 (ip), vehicle: methylcellulose (MC)): 6 of 10
- survivor count [2]: 5 of 10

Structure (SMILES): CCOC(=O)CN=NNc1nc[nH]c1C(N)=O
- survivor count (dose: 175.0 mg/kg/injection, schedule: Q01DX011 (ip), vehicle: carboxymethylcellulose (CMC)): 5 of 10
- survivor count (dose: 350.0 mg/kg/injection, schedule: Q01DX011 (ip), vehicle: carboxymethylcellulose (CMC)): 3 of 10

Structure (SMILES): O=c1[nH]c(=O)c2[nH]c(N=Nc3ccc(N(CCCl)CCCl)cc3)nc2[nH]1
- survivor count (dose: 200.0 mg/kg/injection, schedule: Q01DX011 (ip), vehicle: saline): 2 of 10

Structure (SMILES): CCC1OCCN1C(C)C (stereo unspecified)
- survivor count (dose: 100.0 mg/kg/injection, schedule: Q01DX011 (ip), vehicle: carboxymethylcellulose (CMC)): 0 of 10
- survivor count [3]: 0 of 10

Structure (SMILES): O=C(CCBr)NCCCCCCNC(=O)CCBr
- survivor count (dose: 450.0 mg/kg/injection, schedule: Q01DX011 (ip), vehicle: methylcellulose (MC)): 4 of 10

Structure (SMILES): CCN(CC)P(=O)(N1CC1)N1CC1
- survivor count (dose: 16.0 mg/kg/injection, schedule: Q01DX011 (ip), vehicle: other): 2 of 10

Structure (SMILES): NC(=O)c1cc(N)nc(N)n1
- survivor count (dose: 250.0 mg/kg/injection, schedule: Q01DX011 (ip), vehicle: methylcellulose (MC)): 1 of 10

Structure (SMILES): O=c1[nH]c2cnc(Cl)nc2[nH]1
- T/C (dose: 240.0 mg/kg/injection, schedule: Q01DX011 (ip), vehicle: carboxymethylcellulose (CMC)): 143 % of control
- survivor count (dose: 300.0 mg/kg/injection, schedule: Q01DX011 (ip), vehicle: carboxymethylcellulose (CMC)): 2 of 10

Structure (SMILES): CCOC(=O)CCCc1ccc(N=NN(C)C(C)CC)cc1 (stereo unspecified)
- survivor count (dose: 375.0 mg/kg/injection, schedule: Q01DX011 (ip), vehicle: carboxymethylcellulose (CMC)): 1 of 10

Structure (SMILES): CN(N=O)C(N)=O
- T/C (dose: 3.16 mg/kg/injection, schedule: Q01DX011 (ip), vehicle: carboxymethylcellulose (CMC)): 138 % of control [9 of 10 alive]

Structure (SMILES): CS(=O)(=O)OCCC(=O)NCCNC(=O)CCOS(C)(=O)=O
- T/C (dose: 12.5 mg/kg/injection, schedule: Q01DX011 (ip), vehicle: saline): 136 % of control
- survivor count (dose: 75.0 mg/kg/injection, schedule: Q01DX011 (ip), vehicle: methylcellulose (MC)): 2 of 10

Structure (SMILES): CC(C)Cn1cnc2c(SCc3ccccn3)nc(N)nc21
- survivor count (dose: 200.0 mg/kg/injection, schedule: Q01DX011 (ip), vehicle: methylcellulose (MC)): 2 of 10

Structure (SMILES): CSc1nc(S(C)(=O)=O)ncc1C
- survivor count [2]: 6 of 10

Structure (SMILES): CC1C[C@@H]2[C@H]([C@@H](O)C[C@@]3(C)[C@H]2CC[C@]3(O)C(=O)CF)[C@@]2(C)CCC(=O)C=C12 (stereo partly specified)
- T/C (dose: 42.5 mg/kg/injection, schedule: Q01DX011 (sc), vehicle: steroid suspending solution): 11, 15, 31, 49 % of control
- T/C (dose: 85.0 mg/kg/injection, schedule: Q01DX011 (sc), vehicle: steroid suspending solution): 7 [9 of 12 alive], 12, 21, 30 % of control

Structure (SMILES): CC(=O)OCC(=O)C1(O)C(C)CC2C3C=C(C)C4=Cc5c(cnn5-c5ccccc5)CC4(C)C3C(O)CC21C (stereo unspecified)
- survivor count (dose: 0.4 mg/kg/injection, schedule: Q01DX011 (sc), vehicle: steroid suspending solution): 3 of 6 and 6 of 10
- survivor count (dose: 0.8 mg/kg/injection, schedule: Q01DX011 (sc), vehicle: steroid suspending solution): 0 of 10
- survivor count (dose: 2.5 mg/kg/injection, schedule: Q01DX011 (sc), vehicle: steroid suspending solution): 4 of 10

Structure (SMILES): O=C(Nc1ccc(C2=NCCN2)cc1)c1cc(Cl)c(C(=O)Nc2ccc(C3=NCCN3)cc2)cc1Cl
- survivor count (dose: 60.0 mg/kg/injection, schedule: Q01DX011 (ip), vehicle: methylcellulose (MC)): 1 of 10

Structure (SMILES): Cc1nc(Cl)c(C#N)c(C(F)(F)F)c1N
- survivor count [3]: 1 of 10

Structure (SMILES): NC(=O)c1ccccc1Nc1ccc([N+](=O)[O-])cc1[N+](=O)[O-]
- T/C (dose: 49.0 mg/kg/injection, schedule: Q01DX011 (ip), vehicle: carboxymethylcellulose (CMC)): 131 % of control
- T/C (dose: 70.0 mg/kg/injection, schedule: Q01DX011 (ip), vehicle: carboxymethylcellulose (CMC)): 139 % of control [9 of 10 alive]

Structure (SMILES): O=C1NC(=O)C(c2ccccc2)(c2ccc(Cl)cc2Cl)N1 (stereo unspecified)
- survivor count (dose: 224.0 mg/kg/injection, schedule: Q01DX011 (ip), vehicle: carboxymethylcellulose (CMC)): 6 of 10

Structure (SMILES): O=C1C=Cc2ccc(O)cc2C1=O
- survivor count [4]: 0 of 6
- survivor count (dose: 3.0 mg/kg/injection, schedule: Q01DX011 (ip), vehicle: saline): 0 of 6
- T/C [5]: 144 % of control [8 of 10 alive]
- survivor count (dose: 4.5 mg/kg/injection, schedule: Q01DX011 (ip), vehicle: saline): 0 of 6
- survivor count (dose: 6.7 mg/kg/injection, schedule: Q01DX011 (ip), vehicle: saline): 1 of 6
- survivor count (dose: 16.0 mg/kg/injection, schedule: Q01DX011 (ip), vehicle: saline): 0 of 10

Structure (SMILES): CC1(C)O[C@@H]2C[C@H]3[C@@H]4CCC5=CC(=O)CC[C@]5(C)[C@@]4(F)[C@@H](O)C[C@]3(C)[C@]2(C(=O)CO)O1
- T/C (dose: 3.0 mg/kg/injection, schedule: Q01DX011 (sc), vehicle: steroid suspending solution): 25 [9 of 10 alive], 30, 34, 36 % of control
- survivor count (dose: 48.0 mg/kg/injection, schedule: Q01DX011 (sc), vehicle: steroid suspending solution): 3 of 12
- survivor count (dose: 72.0 mg/kg/injection, schedule: Q01DX011 (sc), vehicle: steroid suspending solution): 1 of 12

Structure (SMILES): CN1CC[C@]23c4c5ccc(O)c4O[C@H]2C(=O)CC[C@H]3[C@H]1C5
- survivor count (dose: 16.0 mg/kg/injection, schedule: Q01DX011 (ip), vehicle: methylcellulose (MC)): 5 of 10
- survivor count (dose: 32.0 mg/kg/injection, schedule: Q01DX011 (ip), vehicle: methylcellulose (MC)): 3 of 10 and 6 of 10
- survivor count (dose: 64.0 mg/kg/injection, schedule: Q01DX011 (ip), vehicle: methylcellulose (MC)): 4 of 10

Structure (SMILES): CCCOC(=O)C1(N)CCCC1
- survivor count [3]: 5 of 10
- survivor count [1]: 2 of 10

Structure (SMILES): C[C@]12CC[C@H](OC3OC(CO)C(O)C(O)C3O)C[C@H]1CC[C@@H]1[C@@H]2CC[C@]2(C)[C@@H](C3=CCOC3=O)CC[C@]12O (stereo partly specified)
- survivor count (dose: 1.0 mg/kg/injection, schedule: Q01DX011 (ip), vehicle: saline): 5 of 10
- survivor count [4]: 1 of 10
- survivor count [5]: 0 of 10

Source: PubChem BioAssay AID180 (DTP/NCI, 2004)
